This is one part of the list. Many values rest on one well or one pass, so single values are uncertain.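 Imaging used 1,536-well plates; nuclei positive for cleaved PARP by antibody were divided by total DNA-stained nuclei to yield the apoptosis fraction. Doses for screening kept most cells viable, and cell lines differ markedly in resting and induced cleaved-PARP levels.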
Assays:
Experiment in all cases: cleaved PARP positive nuclei fraction relative to DMSO control; melanoma cells; higher = more apoptosis
Conditions in all cases: library dose: low library concentration; 72 h
501Mel = tested on: 501Mel
A101D = tested on: A101D
A2058 = tested on: A2058
A375 = tested on: A375
C32 = tested on: C32
CBRC008 = tested on: CBRC008 (line from a melanoma biopsy)
CBRC014 = tested on: CBRC014 (line from a melanoma biopsy)
CBRC016 = tested on: CBRC016 (line from a melanoma biopsy)
CBRC017 = tested on: CBRC017 (line from a melanoma biopsy)
CBRC034 = tested on: CBRC034 (line from a melanoma biopsy)
COLO792 = tested on: COLO792
COLO800 = tested on: COLO800
COLO829 = tested on: COLO829
G361 = tested on: G361
IPC-298 = tested on: IPC-298
IST-MEL1 = tested on: IST-MEL1
LB2518-MEL = tested on: LB2518-MEL
LOXIMVI = tested on: LOXIMVI
MEL-HO = tested on: MEL-HO

Row | SMILES | cleaved PARP positive nuclei fraction (501Mel) [%] | cleaved PARP positive nuclei fraction (A101D) [%] | cleaved PARP positive nuclei fraction (A2058) [%] | cleaved PARP positive nuclei fraction (A375) [%] | cleaved PARP positive nuclei fraction (C32) [%] | cleaved PARP positive nuclei fraction (CBRC008) [%] | cleaved PARP positive nuclei fraction (CBRC014) [%] | cleaved PARP positive nuclei fraction (CBRC016) [%] | cleaved PARP positive nuclei fraction (CBRC017) [%] | cleaved PARP positive nuclei fraction (CBRC034) [%] | cleaved PARP positive nuclei fraction (COLO792) [%] | cleaved PARP positive nuclei fraction (COLO800) [%] | cleaved PARP positive nuclei fraction (COLO829) [%] | cleaved PARP positive nuclei fraction (G361) [%] | cleaved PARP positive nuclei fraction (IPC-298) [%] | cleaved PARP positive nuclei fraction (IST-MEL1) [%] | cleaved PARP positive nuclei fraction (LB2518-MEL) [%] | cleaved PARP positive nuclei fraction (LOXIMVI) [%] | cleaved PARP positive nuclei fraction (MEL-HO) [%]
1 | Cn1c(=O)n(-c2ccc(C(C)(C)C#N)cc2)c2c3cc(-c4cnc5ccccc5c4)ccc3ncc21 + C=CCNC1=C2C[C@@H](C)C[C@H](OC)[C@H](O)[C@@H](C)/C=C(\C)[C@H](OC(N)=O)[C@@H](OC)/C=C\C=C(/C)C(=O)NC(=CC1=O)C2=O [Tanespimycin] (first compound 0.004 µM, partner dose 0.002 µM) | 68 | 54.9 | 35.1 | 105 | 86.4 | 119 | 81 | 38.7 | 98.5 | 96.4 | 32.1 | 112 | 83.4 | 78 | 83.9 | 139 | 122 | 136 | 83.6
2 | C[C@@H](Oc1cc(-c2cnn(C3CCNCC3)c2)cnc1N)c1c(Cl)ccc(F)c1Cl [Crizotinib] + O=C(O)[C@@H]1[O][Sb](=[O])([O][Sb]2(=[O])[O][C@H]([C@H](O)CO)[C@H](O)[C@H](C(=O)O)[O]2)[O][C@H]([C@H](O)CO)[C@@H]1O [stibogluconate] (first compound 0.2 µM, partner dose 2 µM) | 72 | 59.2 | 42.1 | 91 | 68.2 | 129 | 82.8 | 152 | 126 | 85.5 | 108 | 92.6 | 49.7 | 103 | 62.5 | 40.4 | 112 | 40.6 | 37.6
3 | CS(=O)(=O)CCNCc1ccc(-c2ccc3ncnc(Nc4ccc(OCc5cccc(F)c5)c(Cl)c4)c3c2)o1 [lapatinib] + O=C(O)c1ccc2c(c1)nc(Nc1cccc(Cl)c1)c1ccncc12 [CX4945] (first compound 0.8 µM, partner dose 0.4 µM) | 152 | 45.1 | 129 | 177 | 84.6 | 192 | 150 | 94.8 | 168 | 72.7 | 99.8 | 89.5 | 161 | 114 | 141 | 29.4 | 162 | 390 | 127
4 | Nc1ccn([C@@H]2O[C@H](CO)[C@@H](O)C2(F)F)c(=O)n1 [gemcitabine] + Nc1cccc2c1CN(C1CCC(=O)NC1=O)C2=O [lenalidomide] (first compound 0.0004 µM, partner dose 1 µM) | 98.6 | 148 | 124 | 94.7 | 139 | 185 | 241 | 93.6 | 154 | 160 | 39.1 | 285 | 220 | 238 | 50.2 | 209 | 110 | 27.8 | 77.7
5 | Nc1ccn([C@@H]2O[C@H](CO)[C@@H](O)C2(F)F)c(=O)n1 [gemcitabine] + Cn1c(Nc2ccc(C(F)(F)F)cc2)nc2cc(Oc3ccnc(-c4ncc(C(F)(F)F)[nH]4)c3)ccc21 [CHIR265] (first compound 0.0004 µM, partner dose 0.08 µM) | 111 | 139 | 259 | 117 | 81.7 | 272 | 175 | 241 | 112 | 140 | 156 | 62.4 | 100 | 201 | 219 | 155 | 326 | 68.7 | 85.4
6 | O=C(O)[C@@H]1[O][Sb](=[O])([O][Sb]2(=[O])[O][C@H]([C@H](O)CO)[C@H](O)[C@H](C(=O)O)[O]2)[O][C@H]([C@H](O)CO)[C@@H]1O (some centres undefined) [stibogluconate] + COCC[n+]1c2c(n(Cc3cnccn3)c1C)C(=O)c1ccccc1C2=O [YM155] (first compound 2 µM, partner dose 0.0004 µM) | 644 | 48.5 | 64.6 | 115 | 70.7 | 173 | 106 | 102 | 89.2 | 58.4 | 125 | 126 | 73.9 | 32.5 | 119 | 31.7 | 108 | 44.4 | 60.5
7 | CC(C)C[C@H](NC(=O)[C@H](Cc1ccccc1)NC(=O)c1cnccn1)B(O)O [Bortezomib] + C[C@]1(c2nc3c(C(N)=O)cccc3[nH]2)CCCN1 [Veliparib] (first compound 0.001 µM, partner dose 1.4 µM) | 516 | 92.9 | 122 | 236 | 91.8 | 252 | 207 | 132 | 225 | 126 | 108 | 157 | 126 | 926 | 97.7 | 263 | 230 | 54.6 | 126
8 | C[C@@H](Oc1cc(-c2cnn(C3CCNCC3)c2)cnc1N)c1c(Cl)ccc(F)c1Cl [Crizotinib] + O=C(O)c1ccc2c(c1)nc(Nc1cccc(Cl)c1)c1ccncc12 [CX4945] (first compound 0.2 µM, partner dose 0.4 µM) | 73 | 105 | 92.3 | 193 | 86.5 | 42.1 | 103 | 168 | 117 | 335 | 102 | 94.1 | 140 | 112 | 42.9 | 61.3 | 125 | 72.5 | 138
9 | CN1CCN(c2ccc3nc(-c4c(N)c5c(F)cccc5[nH]c4=O)[nH]c3c2)CC1 [Dovitinib] + Cn1nnc2c(C(N)=O)ncn2c1=O [temozolomide] (first compound 0.1 µM, partner dose 2 µM) | 124 | 52.3 | 93.1 | 113 | 92 | 98.6 | 105 | 113 | 81.2 | 61.8 | 30.7 | 89.1 | 89.9 | 71.2 | 88.6 | 24.5 | 164 | 242 | 156
10 | CNC(=O)c1cc(Oc2ccc(NC(=O)Nc3ccc(Cl)c(C(F)(F)F)c3)cc2)ccn1 [sorafenib] + COc1ccc(Cl)c(Nc2nc3ccccc3nc2NS(=O)(=O)c2cccc(NC(=O)C(C)(C)N)c2)c1 [XL147] (first compound 0.4 µM, partner dose 0.8 µM) | 41 | 47.1 | 62.9 | 111 | 41.6 | 655 | 128 | 240 | 118 | 222 | 50.8 | 83.4 | 67.8 | 146 | 30 | 53.7 | 22.9 | 24.6 | 64.3
11 | CNC(=O)c1cc(Oc2ccc(NC(=O)Nc3ccc(Cl)c(C(F)(F)F)c3)cc2)ccn1 [sorafenib] + OCc1c[nH]c2ccccc12 [Indole-3-carbinol] (first compound 0.4 µM, partner dose 0.8 µM) | 81.7 | 48.1 | 117 | 79.5 | 156 | 367 | 108 | 68.8 | 112 | 84.2 | 44.1 | 78.1 | 109 | 129 | 292 | 74.4 | 106 | 106 | 32.5
12 | Nc1ccn([C@@H]2O[C@H](CO)[C@@H](O)C2(F)F)c(=O)n1 [gemcitabine] + Cc1nc(Nc2ncc(C(=O)Nc3c(C)cccc3Cl)s2)cc(N2CCN(CCO)CC2)n1 [dasatanib] (first compound 0.0004 µM, partner dose 0.004 µM) | 117 | 137 | 117 | 168 | 89.4 | 164 | 123 | 105 | 129 | 165 | 82.8 | 103 | 148 | 152 | 32.2 | 114 | 61.9 | 132 | 64.5
13 | C=C(c1ccc(C(=O)O)cc1)c1cc2c(cc1C)C(C)(C)CCC2(C)C [Bexarotene] + Cn1nnc2c(C(N)=O)ncn2c1=O [temozolomide] (first compound 2 µM, partner dose 2 µM) | 115 | 148 | 107 | 59.8 | 74.1 | 231 | 138 | 88.3 | 96.3 | 61.4 | 79.2 | 74.7 | 113 | 122 | 249 | 63.6 | 171 | 89.4 | 56.4
14 | O=C(O)[C@@H]1[O][Sb](=[O])([O][Sb]2(=[O])[O][C@H]([C@H](O)CO)[C@H](O)[C@H](C(=O)O)[O]2)[O][C@H]([C@H](O)CO)[C@@H]1O (some centres undefined) [stibogluconate] + Cc1nc(Nc2ncc(C(=O)Nc3c(C)cccc3Cl)s2)cc(N2CCN(CCO)CC2)n1 [dasatanib] (first compound 2 µM, partner dose 0.004 µM) | 206 | 63.4 | 150 | 188 | 84 | 44.6 | 112 | 79.3 | 138 | 240 | 156 | 193 | 65.6 | 122 | 44.1 | 94.3 | 122 | 345 | 153
15 | CO[C@H]1C[C@@H]2CC[C@@H](C)[C@@](O)(O2)C(=O)C(=O)N2CCCC[C@H]2C(=O)O[C@H]([C@H](C)C[C@@H]2CC[C@@H](OCCO)[C@H](OC)C2)CC(=O)[C@H](C)/C=C(\C)[C@@H](O)[C@@H](OC)C(=O)[C@H](C)C[C@H](C)/C=C/C=C/C=C/1C [everolimus] + C=CCNC1=C2C[C@@H](C)C[C@H](OC)[C@H](O)[C@@H](C)/C=C(\C)[C@H](OC(N)=O)[C@@H](OC)/C=C\C=C(/C)C(=O)NC(=CC1=O)C2=O [Tanespimycin] (first compound 0.02 µM, partner dose 0.002 µM) | 461 | 127 | 88.5 | 1200 | 102 | 170 | 87.3 | 153 | 73.6 | 154 | 363 | 155 | 113 | 159 | 223 | 42.1 | 148 | 66.5 | 102
16 | Cc1cc(Nc2cc(N3CCN(C)CC3)nc(/C=C/c3ccccc3)n2)n[nH]1 + Nc1nc(F)nc2c1ncn2[C@@H]1O[C@H](CO)[C@@H](O)[C@@H]1O [fludarabine] (first compound 0.04 µM, partner dose 0.2 µM) | 16600 | 44 | 55.5 | 5330 | 74.1 | 172 | 107 | 563 | 101 | 113 | 165 | 98.2 | 107 | 227 | 28 | 67.3 | 48.5 | 64.2 | 180

Some values from the list:
Entry for C[C@@H](Oc1cc(-c2cnn(C3CCNCC3)c2)cnc1N)c1c(Cl)ccc(F)c1Cl [Crizotinib] + O=C(O)c1ccc2c(c1)nc(Nc1cccc(Cl)c1)c1ccncc12 [CX4945] (first compound 0.2 µM, partner dose 0.4 µM) under cleaved PARP positive nuclei fraction (A2058) [%]: 92.3
Entry for Cc1cc(Nc2cc(N3CCN(C)CC3)nc(/C=C/c3ccccc3)n2)n[nH]1 + Nc1nc(F)nc2c1ncn2[C@@H]1O[C@H](CO)[C@@H](O)[C@@H]1O [fludarabine] (first compound 0.04 µM, partner dose 0.2 µM) under cleaved PARP positive nuclei fraction (COLO800) [%]: 98.2

Reference: the supplement of paper PMC4604168 (melanoma cell lines)
